The list shows a part of the results.
How the values were obtained:
Assay in all cases: log2 fold change, soluble protein after heating vs DMSO (PISA); higher = thermal stabilisation; K562 lysate, 10 uM; active = over 0.2 and 3.5 SD of the protein, either way, in both replicates (recomputed)
nilotinib = compound: Cc1cn(-c2cc(NC(=O)c3ccc(C)c(Nc4nccc(-c5cccnc5)n4)c3)cc(C(F)(F)F)c2)cn1 [nilotinib]
How it was run: (§1)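 Log-two fold change in thermal stability relative to solvent controls is reported from duplicates. For each sample, crude K562 extract from dounce-homogenised pellets in PBS pH 7.4 with 1 mM MgCl2, at 1 mg/mL protein, was treated with 10 μM compound for 30 min. Aliquots heated for 3 min across 48°C-58°C were pooled, brought to 0.5% NP-40 at 4°C and cleared at 21,000xg for 90 min. The supernatant was quantified by TMTpro 16plex LC-MS/MS with channel sums equalised.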

Sequences of proteins named here, by UniProt entry; tags and fusion partners are left off. A change or cut given only in a name is not applied to a line headed by its entry.
UniProt O00566: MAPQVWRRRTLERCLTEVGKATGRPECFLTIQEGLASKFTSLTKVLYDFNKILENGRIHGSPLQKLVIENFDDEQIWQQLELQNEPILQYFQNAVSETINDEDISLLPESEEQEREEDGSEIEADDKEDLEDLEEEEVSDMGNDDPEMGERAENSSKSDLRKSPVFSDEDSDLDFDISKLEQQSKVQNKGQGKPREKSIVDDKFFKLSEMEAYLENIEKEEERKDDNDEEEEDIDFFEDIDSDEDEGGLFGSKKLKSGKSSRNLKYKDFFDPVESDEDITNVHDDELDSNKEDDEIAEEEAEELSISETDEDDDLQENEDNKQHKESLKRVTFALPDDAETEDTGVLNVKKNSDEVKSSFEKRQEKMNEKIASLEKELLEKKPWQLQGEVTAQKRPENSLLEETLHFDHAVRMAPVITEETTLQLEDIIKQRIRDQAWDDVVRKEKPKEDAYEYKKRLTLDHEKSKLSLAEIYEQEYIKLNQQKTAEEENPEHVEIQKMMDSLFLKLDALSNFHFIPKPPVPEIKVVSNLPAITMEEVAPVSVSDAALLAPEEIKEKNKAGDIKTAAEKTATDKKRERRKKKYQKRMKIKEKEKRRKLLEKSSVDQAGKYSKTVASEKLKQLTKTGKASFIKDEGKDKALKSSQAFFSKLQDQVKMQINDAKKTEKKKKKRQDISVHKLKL
UniProt Q86VX9: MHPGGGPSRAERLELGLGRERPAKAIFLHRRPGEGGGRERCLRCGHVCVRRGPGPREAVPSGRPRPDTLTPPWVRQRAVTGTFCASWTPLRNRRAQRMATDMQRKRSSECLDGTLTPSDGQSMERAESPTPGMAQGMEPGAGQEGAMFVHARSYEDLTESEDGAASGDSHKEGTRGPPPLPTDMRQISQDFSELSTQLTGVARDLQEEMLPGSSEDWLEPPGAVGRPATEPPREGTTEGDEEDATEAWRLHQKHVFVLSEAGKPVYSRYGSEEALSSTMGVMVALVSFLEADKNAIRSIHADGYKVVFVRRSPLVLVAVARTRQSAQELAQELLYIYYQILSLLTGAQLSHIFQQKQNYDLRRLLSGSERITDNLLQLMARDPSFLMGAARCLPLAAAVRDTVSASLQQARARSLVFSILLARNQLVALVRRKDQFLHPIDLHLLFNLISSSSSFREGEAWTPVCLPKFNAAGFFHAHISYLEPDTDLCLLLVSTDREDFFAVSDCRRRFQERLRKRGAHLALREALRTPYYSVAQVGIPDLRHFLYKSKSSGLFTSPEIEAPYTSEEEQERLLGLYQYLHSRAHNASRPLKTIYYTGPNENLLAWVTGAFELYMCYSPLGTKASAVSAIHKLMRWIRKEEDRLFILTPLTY
UniProt Q7Z3U7: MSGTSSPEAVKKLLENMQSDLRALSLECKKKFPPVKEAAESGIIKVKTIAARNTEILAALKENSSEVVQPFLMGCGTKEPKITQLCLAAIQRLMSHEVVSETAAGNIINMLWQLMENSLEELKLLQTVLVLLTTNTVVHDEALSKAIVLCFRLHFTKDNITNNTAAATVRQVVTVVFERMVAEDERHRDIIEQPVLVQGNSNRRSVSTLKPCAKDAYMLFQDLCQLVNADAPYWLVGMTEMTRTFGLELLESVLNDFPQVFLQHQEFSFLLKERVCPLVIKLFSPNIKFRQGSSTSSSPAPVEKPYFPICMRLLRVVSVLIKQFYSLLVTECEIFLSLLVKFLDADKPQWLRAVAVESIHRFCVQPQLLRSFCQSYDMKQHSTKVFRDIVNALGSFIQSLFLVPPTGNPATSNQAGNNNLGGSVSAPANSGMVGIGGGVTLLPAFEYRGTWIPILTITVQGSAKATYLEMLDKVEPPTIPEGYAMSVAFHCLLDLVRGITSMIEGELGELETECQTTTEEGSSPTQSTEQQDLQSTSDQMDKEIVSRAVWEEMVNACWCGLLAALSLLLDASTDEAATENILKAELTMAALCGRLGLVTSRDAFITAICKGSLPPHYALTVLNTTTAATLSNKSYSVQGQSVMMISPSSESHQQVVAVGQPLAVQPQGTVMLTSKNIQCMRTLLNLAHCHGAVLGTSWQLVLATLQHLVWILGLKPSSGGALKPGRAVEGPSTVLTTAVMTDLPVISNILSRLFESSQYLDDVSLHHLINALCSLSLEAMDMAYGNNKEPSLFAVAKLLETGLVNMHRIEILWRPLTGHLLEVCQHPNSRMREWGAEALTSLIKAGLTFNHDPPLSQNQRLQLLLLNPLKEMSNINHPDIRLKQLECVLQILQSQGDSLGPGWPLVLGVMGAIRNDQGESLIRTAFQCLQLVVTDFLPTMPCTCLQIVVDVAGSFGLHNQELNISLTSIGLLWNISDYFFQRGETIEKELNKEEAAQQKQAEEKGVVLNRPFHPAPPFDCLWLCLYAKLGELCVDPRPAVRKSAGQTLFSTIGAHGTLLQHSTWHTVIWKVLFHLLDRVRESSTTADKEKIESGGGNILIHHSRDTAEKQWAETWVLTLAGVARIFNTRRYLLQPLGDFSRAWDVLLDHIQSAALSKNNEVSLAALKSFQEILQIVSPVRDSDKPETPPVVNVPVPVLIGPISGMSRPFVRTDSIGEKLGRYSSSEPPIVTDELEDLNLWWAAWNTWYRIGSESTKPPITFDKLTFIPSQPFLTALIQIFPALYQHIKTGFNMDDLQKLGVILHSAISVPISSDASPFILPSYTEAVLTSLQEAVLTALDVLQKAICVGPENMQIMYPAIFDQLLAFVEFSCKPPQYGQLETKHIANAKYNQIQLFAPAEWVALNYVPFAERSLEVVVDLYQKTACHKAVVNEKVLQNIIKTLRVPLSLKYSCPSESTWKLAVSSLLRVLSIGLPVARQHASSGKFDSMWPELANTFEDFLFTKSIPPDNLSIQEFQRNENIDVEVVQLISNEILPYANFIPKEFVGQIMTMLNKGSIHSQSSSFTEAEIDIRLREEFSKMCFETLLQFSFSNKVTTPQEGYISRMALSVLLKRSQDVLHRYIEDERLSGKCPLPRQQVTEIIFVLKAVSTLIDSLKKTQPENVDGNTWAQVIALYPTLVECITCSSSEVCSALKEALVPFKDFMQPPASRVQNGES
UniProt Q96EN8: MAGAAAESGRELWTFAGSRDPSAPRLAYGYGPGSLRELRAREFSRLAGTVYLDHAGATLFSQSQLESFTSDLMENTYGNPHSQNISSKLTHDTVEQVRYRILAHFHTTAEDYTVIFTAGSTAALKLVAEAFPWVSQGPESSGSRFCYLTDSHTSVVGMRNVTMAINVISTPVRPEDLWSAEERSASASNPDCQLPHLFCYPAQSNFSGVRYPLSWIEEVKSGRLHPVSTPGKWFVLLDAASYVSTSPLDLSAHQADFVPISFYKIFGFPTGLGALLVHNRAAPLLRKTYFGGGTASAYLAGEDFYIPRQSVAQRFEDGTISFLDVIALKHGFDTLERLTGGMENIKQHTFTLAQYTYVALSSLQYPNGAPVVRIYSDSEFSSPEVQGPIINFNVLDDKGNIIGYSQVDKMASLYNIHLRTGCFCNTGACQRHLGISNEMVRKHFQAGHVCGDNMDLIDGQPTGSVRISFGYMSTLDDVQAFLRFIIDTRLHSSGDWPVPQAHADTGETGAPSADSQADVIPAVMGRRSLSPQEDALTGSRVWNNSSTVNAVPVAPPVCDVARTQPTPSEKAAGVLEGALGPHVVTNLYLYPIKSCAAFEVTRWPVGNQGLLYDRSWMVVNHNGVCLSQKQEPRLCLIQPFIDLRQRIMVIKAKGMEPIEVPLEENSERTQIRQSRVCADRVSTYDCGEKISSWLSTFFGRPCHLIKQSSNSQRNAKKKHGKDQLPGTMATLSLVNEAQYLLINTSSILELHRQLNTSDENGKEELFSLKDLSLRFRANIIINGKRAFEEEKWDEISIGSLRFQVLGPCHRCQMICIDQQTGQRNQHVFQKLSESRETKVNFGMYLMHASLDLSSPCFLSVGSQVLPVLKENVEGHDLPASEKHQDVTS
UniProt Q9UH92: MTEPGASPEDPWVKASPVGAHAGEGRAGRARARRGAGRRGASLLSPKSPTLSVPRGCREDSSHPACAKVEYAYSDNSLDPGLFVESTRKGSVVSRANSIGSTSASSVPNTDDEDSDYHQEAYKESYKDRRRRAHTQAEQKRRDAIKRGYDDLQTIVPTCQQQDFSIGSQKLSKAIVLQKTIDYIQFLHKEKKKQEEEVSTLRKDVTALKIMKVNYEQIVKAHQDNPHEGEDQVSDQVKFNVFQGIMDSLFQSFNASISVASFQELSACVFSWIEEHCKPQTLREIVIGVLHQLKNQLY
UniProt Q9H3L0: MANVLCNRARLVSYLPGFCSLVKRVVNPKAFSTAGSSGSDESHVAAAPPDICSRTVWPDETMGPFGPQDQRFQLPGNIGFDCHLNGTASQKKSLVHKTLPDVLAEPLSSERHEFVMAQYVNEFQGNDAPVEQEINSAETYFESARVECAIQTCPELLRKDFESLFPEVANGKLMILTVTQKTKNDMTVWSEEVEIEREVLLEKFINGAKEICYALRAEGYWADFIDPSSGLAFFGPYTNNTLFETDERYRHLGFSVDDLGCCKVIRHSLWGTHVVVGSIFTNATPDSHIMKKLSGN
UniProt Q00013: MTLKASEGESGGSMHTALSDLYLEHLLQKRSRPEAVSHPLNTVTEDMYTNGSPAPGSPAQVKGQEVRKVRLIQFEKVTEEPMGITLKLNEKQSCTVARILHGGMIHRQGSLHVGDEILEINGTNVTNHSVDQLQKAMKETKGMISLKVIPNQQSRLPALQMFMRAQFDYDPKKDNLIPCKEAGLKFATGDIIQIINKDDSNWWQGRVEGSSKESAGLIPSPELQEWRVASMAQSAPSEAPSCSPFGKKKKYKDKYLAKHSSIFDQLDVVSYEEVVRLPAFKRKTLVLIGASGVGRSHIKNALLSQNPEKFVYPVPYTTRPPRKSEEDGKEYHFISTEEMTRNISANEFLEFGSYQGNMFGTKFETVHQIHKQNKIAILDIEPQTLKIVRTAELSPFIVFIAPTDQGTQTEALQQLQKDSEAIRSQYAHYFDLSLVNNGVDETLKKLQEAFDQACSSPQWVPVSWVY
UniProt O14880: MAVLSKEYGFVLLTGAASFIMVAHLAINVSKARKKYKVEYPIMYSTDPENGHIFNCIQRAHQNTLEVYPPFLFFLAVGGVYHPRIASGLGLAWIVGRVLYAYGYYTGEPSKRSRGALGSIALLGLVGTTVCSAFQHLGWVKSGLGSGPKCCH
UniProt Q9NZB8: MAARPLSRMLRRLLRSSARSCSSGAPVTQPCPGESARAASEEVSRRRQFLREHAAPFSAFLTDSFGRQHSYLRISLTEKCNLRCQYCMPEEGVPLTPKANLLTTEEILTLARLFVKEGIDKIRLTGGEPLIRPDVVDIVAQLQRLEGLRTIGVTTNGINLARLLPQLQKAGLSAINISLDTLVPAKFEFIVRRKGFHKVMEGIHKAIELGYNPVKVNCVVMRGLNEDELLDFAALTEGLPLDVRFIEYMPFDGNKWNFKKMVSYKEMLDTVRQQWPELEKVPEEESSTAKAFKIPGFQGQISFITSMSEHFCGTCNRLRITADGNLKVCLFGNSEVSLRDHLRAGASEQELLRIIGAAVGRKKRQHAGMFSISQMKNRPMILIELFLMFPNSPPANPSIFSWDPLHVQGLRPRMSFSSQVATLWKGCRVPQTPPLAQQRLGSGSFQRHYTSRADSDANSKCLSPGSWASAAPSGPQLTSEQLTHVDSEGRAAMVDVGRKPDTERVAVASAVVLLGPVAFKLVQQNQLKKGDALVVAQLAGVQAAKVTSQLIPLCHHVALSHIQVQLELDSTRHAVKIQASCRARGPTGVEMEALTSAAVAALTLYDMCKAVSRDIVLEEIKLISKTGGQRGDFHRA
UniProt P10620: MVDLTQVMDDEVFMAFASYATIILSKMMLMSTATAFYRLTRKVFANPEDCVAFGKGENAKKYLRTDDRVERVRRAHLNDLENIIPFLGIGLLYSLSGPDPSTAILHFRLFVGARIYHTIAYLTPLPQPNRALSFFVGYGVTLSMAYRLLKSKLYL
UniProt Q6IN84: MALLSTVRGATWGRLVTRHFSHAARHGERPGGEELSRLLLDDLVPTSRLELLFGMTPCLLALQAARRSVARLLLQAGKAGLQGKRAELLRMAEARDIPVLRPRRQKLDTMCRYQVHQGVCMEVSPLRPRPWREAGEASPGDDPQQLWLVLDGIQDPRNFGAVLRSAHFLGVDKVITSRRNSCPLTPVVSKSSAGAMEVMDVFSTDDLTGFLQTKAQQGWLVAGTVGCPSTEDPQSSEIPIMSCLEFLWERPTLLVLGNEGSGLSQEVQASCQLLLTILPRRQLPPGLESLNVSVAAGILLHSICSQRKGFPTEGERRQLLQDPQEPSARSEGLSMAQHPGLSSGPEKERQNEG
UniProt P14174: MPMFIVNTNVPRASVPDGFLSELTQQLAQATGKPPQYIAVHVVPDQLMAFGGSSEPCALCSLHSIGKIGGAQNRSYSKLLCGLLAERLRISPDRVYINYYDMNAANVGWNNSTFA
UniProt O95563: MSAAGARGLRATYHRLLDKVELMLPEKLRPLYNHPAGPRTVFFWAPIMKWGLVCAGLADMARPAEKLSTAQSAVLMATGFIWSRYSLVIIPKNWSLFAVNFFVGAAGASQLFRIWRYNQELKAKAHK

[1] = compound: Cc1nc(Nc2n[nH]c3c2CN(C(=O)N[C@H](CN(C)C)c2ccccc2)C3(C)C)c2sccc2n1
How it was run: as §1

dasatinib = compound: Cc1nc(Nc2ncc(C(=O)Nc3c(C)cccc3Cl)s2)cc(N2CCN(CCO)CC2)n1 [dasatinib]
How it was run: as §1

[2] = compound: Cc1ncc(-c2ccnc(Nc3ccc(S(C)(=O)=O)cc3)n2)n1C(C)C
How it was run: as §1

[3] = compound: Cn1cc(-c2ccc3c(c2)CCN3C(=O)Cc2cccc(C(F)(F)F)c2)c2c(N)ncnc21
How it was run: as §1

quisinostat = compound: Cn1cc(CNCC2CCN(c3ncc(C(=O)NO)cn3)CC2)c2ccccc21 [quisinostat]
How it was run: as §1

tipifarnib = compound: Cn1cncc1[C@@](N)(c1ccc(Cl)cc1)c1ccc2c(c1)c(-c1cccc(Cl)c1)cc(=O)n2C [tipifarnib]
How it was run: as §1

[4] = compound: NC(=O)Nc1cc(-c2cccc(F)c2)sc1C(=O)N[C@H]1CCCNC1
How it was run: as §1

[5] = compound: NC(=O)c1cnc(N[C@@H]2CCCC[C@@H]2N)nc1Nc1cccc(-n2nccn2)c1
How it was run: as §1

[6] = compound: NC1(c2ccc(-c3nc4ccn5c(=O)[nH]nc5c4cc3-c3ccccc3)cc2)CCC1
How it was run: as §1

Measured: log2 fold change

MPHOSPH10 (UniProt O00566)
inactive: nilotinib -0.051 | [1] 0.033 | dasatinib -0.001 | [2] -0.078 | [3] 0.082 | quisinostat 0.006 | tipifarnib -0.057 | [4] 0.026 | [5] -0.039 | [6] -0.064

MON1A (UniProt Q86VX9)
inactive: nilotinib 0.042 | [1] 0.015 | dasatinib -0.015 | [2] 0.057 | [3] 0.014 | quisinostat 0.01 | tipifarnib 0.025 | [4] 0.04 | [5] -0.008 | [6] 0.011

MIEN1 (UniProt Q9BRT3)
inactive: nilotinib 0.006 | [1] -0.017 | dasatinib 0.015 | [2] 0.131 | [3] -0.015 | quisinostat 0.151 | tipifarnib 0.06 | [4] -0.054 | [5] -0.068 | [6] 0.003

MRPL11 (UniProt Q9Y3B7)
inactive: nilotinib 0.011 | [1] -0.017 | dasatinib -0.064 | [2] 0.012 | [3] 0.017 | quisinostat 0.004 | tipifarnib -0.048 | [4] 0.048 | [5] -0.033 | [6] -0.06

MOGS (UniProt Q13724)
inactive: nilotinib -0.03 | [1] -0.002 | dasatinib 0.022 | [2] 0.005 | [3] 0.025 | quisinostat 0.084 | tipifarnib -0.023 | [4] 0.004 | [5] 0 | [6] -0.002

MPDU1 (UniProt O75352)
inactive: nilotinib 0.047 | [1] -0.035 | dasatinib 0.035 | [2] 0.042 | [3] 0.034 | quisinostat -0.107 | tipifarnib -0.078 | [4] 0.01 | [5] -0.007 | [6] -0.059

MON2 isoform 5 (UniProt Q7Z3U7)
inactive: nilotinib -0.006 | [1] -0.021 | dasatinib -0.072 | [2] 0.018 | [3] 0.039 | quisinostat -0.074 | tipifarnib -0.004 | [4] 0.021 | [5] 0.005 | [6] -0.003

Quoted at random: two records from the list
MOGS (UniProt Q13724)
inactive: nilotinib -0.03 | [1] -0.002 | dasatinib 0.022 | [2] 0.005 | [3] 0.025 | quisinostat 0.084 | tipifarnib -0.023 | [4] 0.004 | [5] 0 | [6] -0.002

MIEN1 (UniProt Q9BRT3)
inactive: nilotinib 0.006 | [1] -0.017 | dasatinib 0.015 | [2] 0.131 | [3] -0.015 | quisinostat 0.151 | tipifarnib 0.06 | [4] -0.054 | [5] -0.068 | [6] 0.003

Additional results follow:

MMAB (UniProt Q96EY8)
inactive: nilotinib 0.026 | [1] 0.01 | dasatinib -0.002 | [2] -0.002 | [3] -0.018 | quisinostat 0.061 | tipifarnib 0.017 | [4] 0.023 | [5] 0.015 | [6] 0.043

MOCOS (UniProt Q96EN8)
inactive: nilotinib 0.044 | [1] -0.066 | dasatinib -0.002 | [2] -0.006 | [3] 0.053 | quisinostat -0.076 | tipifarnib 0.013 | [4] 0.011 | [5] 0.034 | [6] 0.031

MLX (UniProt Q9UH92)
inactive: nilotinib 0.023 | [1] 0.065 | dasatinib -0.059 | [2] -0.066 | [3] 0.06 | quisinostat -0.119 | tipifarnib -0.08 | [4] -0.03 | [5] 0.012 | [6] 0.094

MLYCD (UniProt O95822)
inactive: nilotinib 0.089 | [1] -0.008 | dasatinib -0.011 | [2] -0.074 | [3] 0.038 | quisinostat -0.058 | tipifarnib 0.044 | [4] 0.118 | [5] -0.042 | [6] -0.015

MMADHC (UniProt Q9H3L0)
inactive: nilotinib -0.157 | [1] 0.001 | dasatinib -0.018 | [2] 0.033 | [3] 0.041 | quisinostat -0.052 | tipifarnib -0.012 | [4] 0.007 | [5] 0.034 | [6] 0.051

MPP1 (UniProt Q00013)
inactive: nilotinib -0.017 | [1] -0.014 | dasatinib -0.011 | [2] 0.011 | [3] 0.007 | quisinostat 0.017 | tipifarnib 0 | [4] 0.024 | [5] 0.017 | [6] 0

MRPL16 (UniProt Q9NX20)
inactive: nilotinib -0.033 | [1] -0.02 | dasatinib 0.042 | [2] 0.032 | [3] 0.072 | quisinostat -0.101 | tipifarnib -0.044 | [4] 0.048 | [5] -0.049 | [6] 0.031

MMS22L (UniProt Q6ZRQ5)
inactive: nilotinib 0.033 | [1] 0 | dasatinib 0.026 | [2] -0.015 | [3] -0.007 | quisinostat -0.086 | tipifarnib -0.013 | [4] 0.041 | [5] -0.03 | [6] -0.06

MRPL1 (UniProt Q9BYD6)
inactive: nilotinib -0.044 | [1] -0.012 | dasatinib -0.05 | [2] 0.011 | [3] 0.025 | quisinostat 0.012 | tipifarnib 0.014 | [4] 0.035 | [5] -0.001 | [6] -0.015

MIOS (UniProt Q9NXC5)
inactive: nilotinib -0.005 | [1] 0.003 | dasatinib 0.012 | [2] -0.019 | [3] 0.016 | quisinostat -0.017 | tipifarnib 0.002 | [4] -0.001 | [5] -0.039 | [6] 0.016

MRPL18 (UniProt Q9H0U6)
inactive: nilotinib -0.007 | [1] 0.055 | dasatinib -0.006 | [2] -0.036 | [3] 0.039 | quisinostat -0.119 | tipifarnib -0.092 | [4] 0.06 | [5] 0.094

MGST3 (UniProt O14880)
inactive: nilotinib 0.024 | [1] 0.016 | dasatinib 0.029 | [2] -0.019 | [3] -0.062 | quisinostat 0.016 | tipifarnib -0.014 | [4] 0.009 | [5] -0.013 | [6] -0.031

MOCS1 isoform 8 (UniProt Q9NZB8)
inactive: nilotinib 0.188 | [1] -0.03 | dasatinib 0.074 | [2] 0.227 | [3] -0.013 | quisinostat -0.082 | tipifarnib -0.231 | [4] 0.093 | [5] 0.021 | [6] -0.033

MGST1 (UniProt P10620)
inactive: nilotinib 0.033 | [1] -0.002 | dasatinib -0.012 | [2] -0.017 | [3] 0.014 | quisinostat -0.029 | tipifarnib 0.02 | [4] 0.085 | [5] -0.007 | [6] -0.012

MRM1 (UniProt Q6IN84)
inactive: nilotinib -0.027 | [1] -0.018 | dasatinib 0.011 | [2] -0.067 | [3] -0.028 | quisinostat 0.009 | tipifarnib -0.025 | [4] 0.005 | [5] 0 | [6] 0.015

MICALL2 (UniProt Q8IY33)
inactive: nilotinib 0.004 | [1] -0.029 | dasatinib 0.028 | [2] -0.013 | [3] -0.005 | quisinostat -0.037 | tipifarnib -0.024 | [4] -0.006 | [5] 0.044 | [6] 0.001

MRPL14 (UniProt Q6P1L8)
inactive: nilotinib -0.059 | [1] -0.006 | dasatinib -0.06 | [2] -0.108 | [3] 0.032 | quisinostat -0.009 | tipifarnib -0.009 | [4] -0.019 | [5] 0.043 | [6] 0.138

MRPL19 (UniProt P49406)
inactive: nilotinib 0.001 | [1] -0.015 | dasatinib -0.039 | [2] -0.004 | [3] 0.005 | quisinostat -0.055 | tipifarnib 0.033 | [4] 0.024 | [5] -0.018 | [6] -0.044

MPV17L2 (UniProt Q567V2)
inactive: nilotinib 0.022 | [1] -0.002 | dasatinib 0.002 | [2] 0.036 | [3] 0.013 | quisinostat -0.066 | tipifarnib 0.016 | [4] 0 | [5] -0.019 | [6] 0.005

MIF (UniProt P14174)
inactive: nilotinib 0.036 | [1] -0.042 | dasatinib 0.001 | [2] -0.007 | [3] -0.009 | quisinostat 0.058 | tipifarnib 0.061 | [4] 0.035 | [5] 0 | [6] 0.033

MPC2 (UniProt O95563)
inactive: nilotinib 0.026 | [1] -0.01 | dasatinib -0.006 | [2] 0.01 | [3] 0 | quisinostat -0.068 | tipifarnib -0.006 | [4] 0.042 | [5] 0.008 | [6] 0.027

MIER1 isoform 12 (UniProt Q8N108)
inactive: nilotinib -0.044 | [1] 0.02 | dasatinib 0.044 | [2] 0.003 | [3] -0.01 | quisinostat -0.102 | tipifarnib -0.02 | [4] 0 | [5] 0.019 | [6] -0.003

MRPL13 (UniProt Q9BYD1)
inactive: nilotinib 0.053 | [1] -0.027 | dasatinib -0.005 | [2] -0.016 | [3] 0.038 | quisinostat -0.025 | tipifarnib -0.008 | [4] -0.012 | [5] 0.027 | [6] 0.051

Reference: the supplement of paper PMC10849652
